# Source: the supplement of paper PMC8728848
# The other results are listed elsewhere or left out.
# B1: GS7807G-bfa-506-18-506 (Bacteroides fragilis) (protein)
# chain: ASCDKFDEINTDPDATTKVTSSLLATGLLLDITSSSASKSFIYDELLAKQMAWGESMEDYQYNVFGRSGFGGYTTLINAQKMVESVSDDNVNAYDGLAHFIKAYKIFYMSMEMGDLPYEEALQGELGLVRPKYNTQKEVMNFILSDLETAYELFSTAKDFDGDPILGGSISKWKKATTAFQLKVLMHLSKKESDADLKVKERFARIVASGSLMESNEDNLQMKYADKANTVYPFHNTNTKHAGYAMLSTMLIDKFKATGDIRMFYYAKPAKAKLNEGVTADSWDAYIGTDPSLPFEQIEKAYATEQYSGFNARYTDYPSGEPVVRLGYAEQNFILAEAAVRGWISGDASAYYKKAIRAHMEFIASNTPDEEVYHHGHPITEEAIAAFLETPAIQLSGEKEEDIEKILTQRYLASFMQHPYDVYYDYRRTGYPVLPINPATNRNTMNDRLPMRWMYPKSESDYNLEHQNEALERQFGGVDDVNKLMWILQ
# Tests used:
# Experiment in all cases: glycan array binding signal (z-score within array); higher = stronger binding
# Conditions in all cases: glycan notation: IUPAC condensed, linker removed
# [1] = molecular target: Gal(b1-3)GlcNAc(b1-6)[Gal(b1-3)]GalNAc
# Method in brief: (§1)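 Glycan array data came from 3228 arrays in the Consortium for Functional Glycomics database, and only arrays with an available protein sequence were kept. Glycan names were put into IUPAC-condensed notation, and columns mapping to the same glycan were averaged. The binding signal is a within-array Z-score, averaged across arrays of one protein sequence run at different concentrations or buffers and across linkers. A negative Z-score can be read as non-binding.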
# [2] = molecular target: Gal(b1-3)GlcNAc6S
# Method in brief: as §1
# [3] = molecular target: Gal(b1-3)[Fuc(a1-4)]GlcNAc
# Method in brief: as §1
# [4] = molecular target: Gal(b1-3)[Fuc(a1-4)]GlcNAc(b1-2)Man
# Method in brief: as §1
# [5] = molecular target: Gal(b1-3)[Fuc(a1-4)]GlcNAc(b1-2)Man(a1-3)[Gal(b1-3)[Fuc(a1-4)]GlcNAc(b1-2)Man(a1-6)]Man(b1-4)GlcNAc(b1-4)[Fuc(a1-6)]GlcNAc
# Method in brief: as §1
# [6] = molecular target: Gal(b1-3)[Fuc(a1-4)]GlcNAc(b1-3)Gal(b1-3)[Fuc(a1-4)]GlcNAc
# Method in brief: as §1
# [7] = molecular target: Gal(b1-3)[Fuc(a1-4)]GlcNAc(b1-3)Gal(b1-4)[Fuc(a1-3)]GlcNAc
# Method in brief: as §1
# [8] = molecular target: Gal(b1-3)[Fuc(a1-4)]GlcNAc(b1-6)GalNAc
# Method in brief: as §1
# [9] = molecular target: Gal(b1-3)[GlcNAc(b1-6)]GalNAc
# Method in brief: as §1
# [10] = molecular target: Gal(b1-3)[Neu5Ac(a2-6)]GalNAc
# Method in brief: as §1
# [11] = molecular target: Gal(b1-3)[Neu5Ac(a2-6)]GlcNAc(b1-4)Gal(b1-4)Glc
# Method in brief: as §1
# [12] = molecular target: Gal(b1-3)[Neu5Ac(b2-6)]GalNAc
# Method in brief: as §1
# [13] = molecular target: Gal(b1-4)Gal
# Method in brief: as §1
# [14] = molecular target: Gal(b1-4)GalNAc(a1-3)[Fuc(a1-2)]Gal(b1-4)GlcNAc
# Method in brief: as §1
# [15] = molecular target: Gal(b1-4)GalNAc(b1-3)[Fuc(a1-2)]Gal(b1-4)GlcNAc
# Method in brief: as §1
# [16] = molecular target: Gal(b1-4)Glc
# Method in brief: as §1
# [17] = molecular target: Gal(b1-4)Glc6S
# Method in brief: as §1
# [18] = molecular target: Gal(b1-4)GlcNAc
# Method in brief: as §1
# [19] = molecular target: Gal(b1-4)GlcNAc(a1-6)Gal(b1-4)GlcNAc
# Method in brief: as §1
# [20] = molecular target: Gal(b1-4)GlcNAc(b1-2)Man
# Method in brief: as §1
# [21] = molecular target: Gal(b1-4)GlcNAc(b1-2)Man(a1-3)Man(b1-4)GlcNAc(b1-4)GlcNAc
# Method in brief: as §1
# [22] = molecular target: Gal(b1-4)GlcNAc(b1-2)Man(a1-3)[Gal(b1-4)GlcNAc(b1-2)Man(a1-6)]Man(b1-4)GlcNAc(b1-4)GlcNAc
# Method in brief: as §1
# [23] = molecular target: Gal(b1-4)GlcNAc(b1-2)Man(a1-3)[Gal(b1-4)GlcNAc(b1-2)Man(a1-6)]Man(b1-4)GlcNAc(b1-4)[Fuc(a1-6)]GlcNAc
# Method in brief: as §1
# [24] = molecular target: Gal(b1-4)GlcNAc(b1-2)Man(a1-3)[Gal(b1-4)GlcNAc(b1-2)Man(a1-6)][Gal(b1-4)GlcNAc(b1-4)]Man(b1-4)GlcNAc(b1-4)[Fuc(a1-6)]GlcNAc
# Method in brief: as §1
# [25] = molecular target: Gal(b1-4)GlcNAc(b1-2)Man(a1-3)[Gal(b1-4)GlcNAc(b1-2)Man(a1-6)][GlcNAc(b1-4)]Man(b1-4)GlcNAc(b1-4)[Fuc(a1-6)]GlcNAc
# Method in brief: as §1
# [26] = molecular target: Gal(b1-4)GlcNAc(b1-2)Man(a1-3)[GlcNAc(b1-2)Man(a1-6)]Man(b1-4)GlcNAc(b1-4)GlcNAc
# Method in brief: as §1
# [27] = molecular target: Gal(b1-4)GlcNAc(b1-2)Man(a1-3)[GlcNAc(b1-4)][Gal(b1-4)GlcNAc(b1-2)Man(a1-6)]Man(b1-4)GlcNAc(b1-4)GlcNAc
# Method in brief: as §1
# [28] = molecular target: Gal(b1-4)GlcNAc(b1-2)Man(a1-3)[Man(a1-6)]Man(b1-4)GlcNAc(b1-4)GlcNAc
# Method in brief: as §1
# [29] = molecular target: Gal(b1-4)GlcNAc(b1-2)Man(a1-6)Man(b1-4)GlcNAc(b1-4)GlcNAc
# Method in brief: as §1
# [30] = molecular target: Gal(b1-4)GlcNAc(b1-2)Man(a1-6)[GlcNAc(b1-2)Man(a1-3)]Man(b1-4)GlcNAc(b1-4)GlcNAc
# Method in brief: as §1
# [31] = molecular target: Gal(b1-4)GlcNAc(b1-2)Man(a1-6)[Man(a1-3)]Man(b1-4)GlcNAc(b1-4)GlcNAc
# Method in brief: as §1
# [32] = molecular target: Gal(b1-4)GlcNAc(b1-2)[Gal(b1-4)GlcNAc(b1-4)]Man(a1-3)[Gal(b1-4)GlcNAc(b1-2)Man(a1-6)]Man(b1-4)GlcNAc(b1-4)GlcNAc
# Method in brief: as §1
# [33] = molecular target: Gal(b1-4)GlcNAc(b1-2)[Gal(b1-4)GlcNAc(b1-4)]Man(a1-3)[Gal(b1-4)GlcNAc(b1-2)[Gal(b1-4)GlcNAc(b1-6)]Man(a1-6)]Man(b1-4)GlcNAc(b1-4)GlcNAc
# Method in brief: as §1
# [34] = molecular target: Gal(b1-4)GlcNAc(b1-2)[Gal(b1-4)GlcNAc(b1-4)]Man(a1-3)[GlcNAc(b1-4)][Gal(b1-4)GlcNAc(b1-2)Man(a1-6)]Man(b1-4)GlcNAc(b1-4)GlcNAc
# Method in brief: as §1
# [35] = molecular target: Gal(b1-4)GlcNAc(b1-2)[Gal(b1-4)GlcNAc(b1-4)]Man(a1-3)[GlcNAc(b1-4)][Gal(b1-4)GlcNAc(b1-2)[Gal(b1-4)GlcNAc(b1-6)]Man(a1-6)]Man(b1-4)GlcNAc(b1-4)GlcNAc
# Method in brief: as §1
# [36] = molecular target: Gal(b1-4)GlcNAc(b1-2)[Gal(b1-4)GlcNAc(b1-6)]Man(a1-6)[Gal(b1-4)GlcNAc(b1-2)Man(a1-3)]Man(b1-4)GlcNAc(b1-4)GlcNAc
# Method in brief: as §1
# [37] = molecular target: Gal(b1-4)GlcNAc(b1-2)[Gal(b1-4)GlcNAc(b1-6)]Man(a1-6)[Gal(b1-4)GlcNAc(b1-2)Man(a1-3)]Man(b1-4)GlcNAc(b1-4)[Fuc(a1-6)]GlcNAc
# Method in brief: as §1
# [38] = molecular target: Gal(b1-4)GlcNAc(b1-2)[Gal(b1-4)GlcNAc(b1-6)]Man(a1-6)[GlcNAc(b1-4)][Gal(b1-4)GlcNAc(b1-2)Man(a1-3)]Man(b1-4)GlcNAc(b1-4)GlcNAc
# Method in brief: as §1
# [39] = molecular target: Gal(b1-4)GlcNAc(b1-2)[Gal(b1-4)GlcNAc(b1-6)]Man(a1-6)[GlcNAc(b1-4)][Gal(b1-4)GlcNAc(b1-2)[Gal(b1-4)GlcNAc(b1-4)]Man(a1-3)]Man(b1-4)GlcNAc(b1-4)[Fuc(a1-6)]GlcNAc
# Method in brief: as §1
# [40] = molecular target: Gal(b1-4)GlcNAc(b1-3)Gal(b1-3)GalNAc
# Method in brief: as §1
# [41] = molecular target: Gal(b1-4)GlcNAc(b1-3)Gal(b1-3)GlcNAc
# Method in brief: as §1
# [42] = molecular target: Gal(b1-4)GlcNAc(b1-3)Gal(b1-4)Glc
# Method in brief: as §1
# [43] = molecular target: Gal(b1-4)GlcNAc(b1-3)Gal(b1-4)GlcNAc
# Method in brief: as §1
# [44] = molecular target: Gal(b1-4)GlcNAc(b1-3)Gal(b1-4)GlcNAc(b1-2)Man(a1-3)[Gal(b1-4)GlcNAc(b1-3)Gal(b1-4)GlcNAc(b1-2)Man(a1-6)]Man(b1-4)GlcNAc(b1-4)GlcNAc
# Method in brief: as §1
# [45] = molecular target: Gal(b1-4)GlcNAc(b1-3)Gal(b1-4)GlcNAc(b1-2)Man(a1-3)[Gal(b1-4)GlcNAc(b1-3)Gal(b1-4)GlcNAc(b1-2)Man(a1-6)]Man(b1-4)GlcNAc(b1-4)[Fuc(a1-6)]GlcNAc
# Method in brief: as §1
binder,measurement,setting,value
B1,glycan array binding signal (z-score),[1],-0.028
same,glycan array binding signal (z-score),[2],0.702
same,glycan array binding signal (z-score),[3],-0.673
same,glycan array binding signal (z-score),[4],0.873
same,glycan array binding signal (z-score),[5],1.62
same,glycan array binding signal (z-score),[6],-0.731
same,glycan array binding signal (z-score),[7],-0.839
same,glycan array binding signal (z-score),[8],0.119
same,glycan array binding signal (z-score),[9],-0.612
same,glycan array binding signal (z-score),[10],-0.517
same,glycan array binding signal (z-score),[11],-0.306
same,glycan array binding signal (z-score),[12],-0.154
same,glycan array binding signal (z-score),[13],-0.523
same,glycan array binding signal (z-score),[14],-0.448
same,glycan array binding signal (z-score),[15],0.319
same,glycan array binding signal (z-score),[16],0.007
same,glycan array binding signal (z-score),[17],-0.647
same,glycan array binding signal (z-score),[18],-0.191
same,glycan array binding signal (z-score),[19],-0.507
same,glycan array binding signal (z-score),[20],0.722
same,glycan array binding signal (z-score),[21],1.48
same,glycan array binding signal (z-score),[22],-0.602
same,glycan array binding signal (z-score),[23],2.53
same,glycan array binding signal (z-score),[24],0.473
same,glycan array binding signal (z-score),[25],-0.154
same,glycan array binding signal (z-score),[26],-0.429
same,glycan array binding signal (z-score),[27],-0.073
same,glycan array binding signal (z-score),[28],1.4
same,glycan array binding signal (z-score),[29],0.093
same,glycan array binding signal (z-score),[30],-0.139
same,glycan array binding signal (z-score),[31],1.01
same,glycan array binding signal (z-score),[32],1.21
same,glycan array binding signal (z-score),[33],-0.615
same,glycan array binding signal (z-score),[34],1.18
same,glycan array binding signal (z-score),[35],0.515
same,glycan array binding signal (z-score),[36],1.11
same,glycan array binding signal (z-score),[37],0.773
same,glycan array binding signal (z-score),[38],0.01
same,glycan array binding signal (z-score),[39],-0.315
same,glycan array binding signal (z-score),[40],1.48
same,glycan array binding signal (z-score),[41],0.201
same,glycan array binding signal (z-score),[42],0.624
same,glycan array binding signal (z-score),[43],-0.301
same,glycan array binding signal (z-score),[44],0.789
same,glycan array binding signal (z-score),[45],2.64

# Part of the list above, set out differently:
binder	measurement	setting	value
B1	glycan array binding signal (z-score)	[5]	1.62
same	glycan array binding signal (z-score)	[40]	1.48
